Laboratory results as given in PMC10709384.
No constants are given. Whether binding was seen depends on the method and setting. Some entries that bind do so weakly or less than the wild type.

The chains behind the UniProt entries cited, without tags or fusion partners.
UniProt Q12432: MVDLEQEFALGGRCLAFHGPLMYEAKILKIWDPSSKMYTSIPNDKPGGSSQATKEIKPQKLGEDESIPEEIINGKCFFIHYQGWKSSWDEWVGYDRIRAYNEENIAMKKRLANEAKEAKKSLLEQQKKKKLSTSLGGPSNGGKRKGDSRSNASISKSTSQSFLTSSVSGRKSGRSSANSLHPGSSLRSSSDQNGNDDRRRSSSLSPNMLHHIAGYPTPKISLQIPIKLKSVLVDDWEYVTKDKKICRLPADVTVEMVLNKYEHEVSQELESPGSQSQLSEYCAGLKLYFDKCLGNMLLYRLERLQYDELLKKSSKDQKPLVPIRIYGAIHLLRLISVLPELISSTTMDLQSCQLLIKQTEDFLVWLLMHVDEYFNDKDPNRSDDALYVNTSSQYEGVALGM
UniProt P22579: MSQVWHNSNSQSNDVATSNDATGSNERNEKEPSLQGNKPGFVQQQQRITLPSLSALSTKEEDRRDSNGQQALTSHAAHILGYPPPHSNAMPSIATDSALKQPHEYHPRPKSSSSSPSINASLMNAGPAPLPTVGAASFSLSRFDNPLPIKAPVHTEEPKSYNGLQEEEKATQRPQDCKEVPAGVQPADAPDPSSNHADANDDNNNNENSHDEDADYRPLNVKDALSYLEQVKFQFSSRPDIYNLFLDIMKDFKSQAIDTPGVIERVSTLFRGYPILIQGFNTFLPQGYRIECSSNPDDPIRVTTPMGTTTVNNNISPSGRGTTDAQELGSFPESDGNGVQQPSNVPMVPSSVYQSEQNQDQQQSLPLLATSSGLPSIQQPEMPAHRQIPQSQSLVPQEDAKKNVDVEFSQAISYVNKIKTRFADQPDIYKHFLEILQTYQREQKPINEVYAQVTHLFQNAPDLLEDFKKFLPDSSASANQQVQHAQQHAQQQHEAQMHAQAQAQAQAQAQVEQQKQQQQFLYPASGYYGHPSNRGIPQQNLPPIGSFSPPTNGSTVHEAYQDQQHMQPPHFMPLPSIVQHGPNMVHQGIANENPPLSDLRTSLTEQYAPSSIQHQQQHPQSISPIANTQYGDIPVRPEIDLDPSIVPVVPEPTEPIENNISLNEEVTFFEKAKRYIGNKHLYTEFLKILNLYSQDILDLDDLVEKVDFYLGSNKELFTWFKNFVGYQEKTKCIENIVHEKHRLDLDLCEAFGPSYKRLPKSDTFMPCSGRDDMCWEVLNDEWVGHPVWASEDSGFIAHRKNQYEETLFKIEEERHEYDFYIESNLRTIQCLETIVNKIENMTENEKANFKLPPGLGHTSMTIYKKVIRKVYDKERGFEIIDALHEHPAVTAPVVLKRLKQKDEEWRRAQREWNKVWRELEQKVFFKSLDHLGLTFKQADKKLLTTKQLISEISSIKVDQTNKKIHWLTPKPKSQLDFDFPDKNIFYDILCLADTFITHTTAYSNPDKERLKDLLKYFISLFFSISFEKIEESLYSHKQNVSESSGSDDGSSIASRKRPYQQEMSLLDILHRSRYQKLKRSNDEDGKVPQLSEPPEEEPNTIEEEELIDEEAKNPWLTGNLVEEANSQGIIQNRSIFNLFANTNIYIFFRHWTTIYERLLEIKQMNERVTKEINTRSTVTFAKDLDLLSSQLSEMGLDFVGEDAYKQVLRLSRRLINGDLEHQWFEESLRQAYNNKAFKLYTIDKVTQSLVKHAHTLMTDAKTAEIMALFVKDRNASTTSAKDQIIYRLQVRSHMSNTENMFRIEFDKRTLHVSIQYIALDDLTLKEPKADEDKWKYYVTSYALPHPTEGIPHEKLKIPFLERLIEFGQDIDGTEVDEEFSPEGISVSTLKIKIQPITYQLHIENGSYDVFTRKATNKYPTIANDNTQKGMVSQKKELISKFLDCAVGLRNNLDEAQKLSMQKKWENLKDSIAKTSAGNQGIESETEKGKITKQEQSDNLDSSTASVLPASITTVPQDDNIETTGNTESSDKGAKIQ

Experiments:
Assay in all cases: cryo-EM structure; nucleosome (0.9 µM) and Rpd3S (1.8 µM) mixed on ice for 1 h in 50 mM NaCl, 20 mM Na-HEPES pH 7.4, 1 mM TCEP, 4% glycerol; Superose 6 Increase 3.2/300; mild glutaraldehyde cross-linking; single-particle cryo-EM, overall 2.8 Å (Ume1 only at more than 8 Å); both purified
[1] = molecular target: Eaf3 (S. cerevisiae) (UniProt Q12432)
[2] = molecular target: T1, Rpd3 (S. cerevisiae) (UniProt P32561)
T1 sequence: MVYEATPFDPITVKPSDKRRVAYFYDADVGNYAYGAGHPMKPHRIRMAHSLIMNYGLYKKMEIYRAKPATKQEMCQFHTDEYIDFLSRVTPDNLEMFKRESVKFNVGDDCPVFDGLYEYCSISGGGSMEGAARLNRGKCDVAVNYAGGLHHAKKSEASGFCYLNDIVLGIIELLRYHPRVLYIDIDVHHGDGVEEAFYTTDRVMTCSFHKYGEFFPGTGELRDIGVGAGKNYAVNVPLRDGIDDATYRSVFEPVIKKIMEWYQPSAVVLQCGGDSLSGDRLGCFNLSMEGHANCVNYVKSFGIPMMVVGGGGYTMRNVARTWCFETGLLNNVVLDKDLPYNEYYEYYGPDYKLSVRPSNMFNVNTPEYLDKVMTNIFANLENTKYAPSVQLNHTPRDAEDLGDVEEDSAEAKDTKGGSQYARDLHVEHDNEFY

[3] = molecular target: Sin3 (S. cerevisiae) (UniProt P22579)

Measured: binding

B1: Rco1 (protein, UniProt Q04779 1-684)
chain: MDTSKKDTTRSPSHSNSSSPSSSSLSSSSSKEKKRPKRLSSQNVNYDLKRRKIITSEGIERSFKNEHSNLAVEDNIPEEEPKELLEKDSKGNIIKLNEPSTISEDSKVSVTGLPLNKGPSEKIKRESLWNYRKNLGGQSNNSEMTLVPSKRFTQVPKNFQDLNRNDLKTFLTENMTEESNIRSTIGWNGDIINRTRDREPESDRDNKKLSNIRTKIILSTNATYDSKSKLFGQNSIKSTSNASEKIFRDKNNSTIDFENEDFCSACNQSGSFLCCDTCPKSFHFLCLDPPIDPNNLPKGDWHCNECKFKIFINNSMATLKKIESNFIKQNNNVKIFAKLLFNIDSHNPKQFQLPNYIKETFPAVKTGSRGQYSDENDKIPLTDRQLFNTSYGQSITKLDSYNPDTHIDSNSGKFLICYKCNQTRLGSWSHPENSRLIMTCDYCQTPWHLDCVPRASFKNLGSKWKCPLHSPTKVYKKIHHCQEDNSVNYKVWKKQRLINKKNQLYYEPLQKIGYQNNGNIQIIPTTSHTDYDFNQDFKITQIDENSIKYDFFDKIYKSKMVQKRKLFQFQESLIDKLVSNGSQNGNSEDNMVKDIASLIYFQVSNNDKSSNNKSASKSNNLRKLWDLKELTNVVVPNELDSIQFNDFSSDEIKHLLYLKKIIESKPKEELLKFLNIENPENQSE
binds: all assays above
